Among the data in patent US20090054250 are binding signal (fold fluorescence increase) values, retold here.

Data set [1] deals with PDGF-BB (platelet-derived growth factor B homodimer) (UniProt P01127). Put plainly: binding assay. As to conditions: n at position 22 is 2-aminopurine replacing C [22 (2-aminopurine replacing C)]; PAGE purified; screening buffer 20 mM Tris pH 7.1, 140 mM NaCl, 5 mM KCl, 10 mM CaCl2, 10 mM MgCl2, 23 C; label: 2-aminopurine; single-stranded DNA; letters built from the parent sequence and the stated change.

The subject of data set [2] is alpha-thrombin (Homo sapiens). Put plainly: binding assay. As to conditions: n at position 7 is 2-aminopurine replacing T [7 (2-aminopurine replacing T)]; 2AP fluorescence at saturating protein; label: 2-aminopurine; single-stranded DNA; letters built from the parent sequence and the stated change.

For at least one entry, the source does not settle the construct or the ends of the probe. The direction of at least one scale is not stated here.

For “CACAGGCTACGGCACGTAGAGCATCACCATGATCCTGTG [PDGF-B aptamer 2AP-22]”, in data set [1], the binding signal (fold fluorescence increase) was 5.8. With “GGTTGGTGTGGTTGG [thrombin aptamer 2AP-7]”, in data set [2], the binding signal (fold fluorescence increase) came to 10.
